Data on 1 molecule can be found in PMC10712958.

By UniProt entry, the sequences of proteins in these tests, tags left out.
UniProt O60488: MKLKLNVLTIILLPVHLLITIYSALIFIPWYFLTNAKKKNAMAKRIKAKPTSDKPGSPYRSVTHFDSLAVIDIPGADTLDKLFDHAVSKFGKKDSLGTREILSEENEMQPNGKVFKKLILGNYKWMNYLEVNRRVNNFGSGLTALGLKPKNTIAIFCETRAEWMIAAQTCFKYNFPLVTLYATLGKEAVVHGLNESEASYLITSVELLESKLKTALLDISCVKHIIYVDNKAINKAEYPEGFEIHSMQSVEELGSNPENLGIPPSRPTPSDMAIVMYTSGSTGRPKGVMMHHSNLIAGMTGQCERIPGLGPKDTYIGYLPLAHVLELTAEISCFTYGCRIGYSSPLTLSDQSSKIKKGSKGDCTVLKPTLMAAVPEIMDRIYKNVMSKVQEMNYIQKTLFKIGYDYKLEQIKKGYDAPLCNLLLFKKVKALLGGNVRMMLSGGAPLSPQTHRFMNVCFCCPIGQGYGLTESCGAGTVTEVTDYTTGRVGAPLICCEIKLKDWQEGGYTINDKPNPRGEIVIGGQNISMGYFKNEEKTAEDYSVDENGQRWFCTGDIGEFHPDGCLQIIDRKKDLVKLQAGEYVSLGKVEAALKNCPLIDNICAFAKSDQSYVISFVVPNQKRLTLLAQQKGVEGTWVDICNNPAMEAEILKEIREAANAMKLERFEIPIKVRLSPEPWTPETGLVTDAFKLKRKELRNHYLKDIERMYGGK

These are yes or no findings as the source states them, for the method shown. Binding seen in cells or lysates may run through a third protein. Some entries that bind do so weakly or less than the wild type.

The target in the test is ACSL4-GST (UniProt O60488). Briefly: pull-down; GST pull down Assay Kit (FI88807, FITGENE) by the manufacturer's protocol; ACSL4-GST and GST control plasmids; in MDA-MB-231 cells.

B1: ZEB2 (endogenous, MDA-MB-231) (protein, UniProt O60315 1-1214)
chain: MKQPIMADGPRCKRRKQANPRRKNVVNYDNVVDTGSETDEEDKLHIAEDDGIANPLDQETSPASVPNHESSPHVSQALLPREEEEDEIREGGVEHPWHNNEILQASVDGPEEMKEDYDTMGPEATIQTAINNGTVKNANCTSDFEEYFAKRKLEERDGHAVSIEEYLQRSDTAIIYPEAPEELSRLGTPEANGQEENDLPPGTPDAFAQLLTCPYCDRGYKRLTSLKEHIKYRHEKNEENFSCPLCSYTFAYRTQLERHMVTHKPGTDQHQMLTQGAGNRKFKCTECGKAFKYKHHLKEHLRIHSGEKPYECPNCKKRFSHSGSYSSHISSKKCIGLISVNGRMRNNIKTGSSPNSVSSSPTNSAITQLRNKLENGKPLSMSEQTGLLKIKTEPLDFNDYKVLMATHGFSGTSPFMNGGLGATSPLGVHPSAQSPMQHLGVGMEAPLLGFPTMNSNLSEVQKVLQIVDNTVSRQKMDCKAEEISKLKGYHMKDPCSQPEEQGVTSPNIPPVGLPVVSHNGATKSIIDYTLEKVNEAKACLQSLTTDSRRQISNIKKEKLRTLIDLVTDDKMIENHNISTPFSCQFCKESFPGPIPLHQHERYLCKMNEEIKAVLQPHENIVPNKAGVFVDNKALLLSSVLSEKGMTSPINPYKDHMSVLKAYYAMNMEPNSDELLKISIAVGLPQEFVKEWFEQRKVYQYSNSRSPSLERSSKPLAPNSNPPTKDSLLPRSPVKPMDSITSPSIAELHNSVTNCDPPLRLTKPSHFTNIKPVEKLDHSRSNTPSPLNLSSTSSKNSHSSSYTPNSFSSEELQAEPLDLSLPKQMKEPKSIIATKNKTKASSISLDHNSVSSSSENSDEPLNLTFIKKEFSNSNNLDNKSTNPVFSMNPFSAKPLYTALPPQSAFPPATFMPPVQTSIPGLRPYPGLDQMSFLPHMAYTYPTGAATFADMQQRRKYQRKQGFQGELLDGAQDYMSGLDDMTDSDSCLSRKKIKKTESGMYACDLCDKTFQKSSSLLRHKYEHTGKRPHQCQICKKAFKHKHHLIEHSRLHSGEKPYQCDKCGKRFSHSGSYSQHMNHRYSYCKREAEEREAAEREAREKGHLEPTELLMNRAYLQSITPQGYSDSEERESMPRDGESEKEHEKEGEDGYGKLGRQDGDEEFEEEEEESENKSMDTDPETIRDEEETGDHSMDDSSEDGKMETKSDHEEDNMEDGM
Take B1: the binding entry was “binds”.
